PubChem BioAssay AID1259308, NCATS, 2017

Test: 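Genes whose loss raises luciferase production in HEK293 cells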 (primary screen)
Cell system: human HEK293 embryonic kidney cells stably expressing firefly luciferase (HEK-CMV-Luc2-Hygro)
Reagents: single siRNA against human genes, 0.8 pmol siRNA per well
Duration: 72 h
Measurement: 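Luciferase light (ONE-Glo) measured on one replicate plate set and viability (CellTiter-Glo) on the other, scaled to a negative control siRNA, with robust z-scores and luciferase per cell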
Direction: total luciferase, z-score: higher = more reporter protein produced
Rule for the call: 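Active when the median/MAD z-score for overall luciferase is greater than 3; a gene was taken forward for validation with new siRNAs if at least two of its three siRNAs passed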
Meaning of the calls: active = raised luciferase; inactive = no rise
Shown is a random part of about 59,000 deposited reagents. About 1,510 of them (2.6%) count as active. 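Calls use total luciferase alone and ignore viability, so some active siRNAs may act by altering cell number.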 The numbers tell different reagents against one gene apart. Not all columns of the deposit are shown. Reagent sequences are not shown.

GLT8D2 #1 → total luciferase, z-score = -0.268; call = inactive
GLT8D2 #2 → total luciferase, z-score = 4.67; call = active
GLT8D2 #3 → total luciferase, z-score = -0.368; call = inactive
COA3 #1 → total luciferase, z-score = 0.794; call = inactive
COA3 #2 → total luciferase, z-score = 0.78; call = inactive
COA3 #3 → total luciferase, z-score = 1.34; call = inactive
ITGA1 #1 → total luciferase, z-score = 0.153; call = inactive
ITGA1 #2 → total luciferase, z-score = -0.283; call = inactive
ITGA1 #3 → total luciferase, z-score = 0.45; call = inactive
MBD3L1 #1 → total luciferase, z-score = 0.448; call = inactive
MBD3L1 #2 → total luciferase, z-score = -0.0588; call = inactive
MBD3L1 #3 → total luciferase, z-score = -0.866; call = inactive
CYTIP #1 → total luciferase, z-score = 0.598; call = inactive
CYTIP #2 → total luciferase, z-score = 0.0109; call = inactive
CYTIP #3 → total luciferase, z-score = -0.66; call = inactive
ATP6V0E2-AS1 #1 → total luciferase, z-score = 0.932; call = inactive
ATP6V0E2-AS1 #2 → total luciferase, z-score = -0.747; call = inactive
ATP6V0E2-AS1 #3 → total luciferase, z-score = 3.77; call = active

5 entries already listed, arranged by “total luciferase, z-score”, descending:
GLT8D2 #2 → total luciferase, z-score = 4.67; call = active
COA3 #1 → total luciferase, z-score = 0.794; call = inactive
COA3 #2 → total luciferase, z-score = 0.78; call = inactive
GLT8D2 #1 → total luciferase, z-score = -0.268; call = inactive
GLT8D2 #3 → total luciferase, z-score = -0.368; call = inactive

Additional entries follow:
NUDCD2 #1 → total luciferase, z-score = -0.868; call = inactive
NUDCD2 #2 → total luciferase, z-score = 0.103; call = inactive
NUDCD2 #3 → total luciferase, z-score = -0.39; call = inactive
GEN1 #1 → total luciferase, z-score = 0.0501; call = inactive
GEN1 #2 → total luciferase, z-score = -1.39; call = inactive
GEN1 #3 → total luciferase, z-score = -1.12; call = inactive
GEN1 #4 → total luciferase, z-score = 0.0143; call = inactive
GEN1 #5 → total luciferase, z-score = -1.66; call = inactive
GEN1 #6 → total luciferase, z-score = 0.8; call = inactive
GAREM1 #1 → total luciferase, z-score = -0.199; call = inactive
GAREM1 #2 → total luciferase, z-score = 0.418; call = inactive
GAREM1 #3 → total luciferase, z-score = 0.0969; call = inactive
ANKRD10 #1 → total luciferase, z-score = -0.201; call = inactive
ANKRD10 #2 → total luciferase, z-score = -0.301; call = inactive
ANKRD10 #3 → total luciferase, z-score = -0.11; call = inactive
